Data reported in the supplement of paper PMC6078165.

System: MDAMB231
Assay: relative JC-1 red fluorescence (viability) vs pre-drug, coculture with fibroblast (fraction); higher = more viable cancer cells
Settings: 10 µM
Method: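 JC-1 labelled TNBC cells cocultured 1:1 (1,500 cells each) with CellTrace Violet stained primary or stromal fibroblasts in 384-well plates in FluoroBrite medium, treated with one of 42 anticancer drugs at 0.1, 1, 10 or 100 uM. JC-1 red fluorescence (mitochondrial integrity in cancer cells only) was read by plate reader every 8 h for 72 h. Values are normalised to each well's pre-drug value. The stock of one drug was tenfold lower, so its dose labels may be too high.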

CC(C)C[C@H](NC(=O)[C@@H](COC(C)(C)C)NC(=O)[C@H](Cc1ccc(O)cc1)NC(=O)[C@H](CO)NC(=O)[C@H](Cc1c[nH]c2ccccc12)NC(=O)[C@H](Cc1cnc[nH]1)NC(=O)[C@@H]1CCC(=O)N1)C(=O)N[C@@H](CCCNC(=N)N)C(=O)N1CCC[C@H]1C(=O)NNC(N)=O [Goserelin]
relative JC-1 red fluorescence
Settings | 8 h | 16 h | 24 h | 32 h | 40 h
coculture fibroblast: C12385 | 0.807 | 0.74 | 0.71 | 0.668 | 0.619
coculture fibroblast: H6013 | 0.888 | 0.833 | 0.784 | 0.753 | 0.693
coculture fibroblast: H6019 | 0.771 | 0.693 | 0.6495 | 0.602 | 0.547
coculture fibroblast: H6076 | 0.883 | 0.796 | 0.728 | 0.685 | 0.642
coculture fibroblast: H6231 | 0.85 | 0.873 | 0.786 | 0.727 | 0.655
coculture fibroblast: HADF | 0.912 | 0.8278 | 0.79008 | 0.754 | 0.699
coculture fibroblast: HCFa | 0.8991 | 0.8326 | 0.798 | 0.763 | 0.707
coculture fibroblast: HCPF | 0.889 | 0.786 | 0.722 | 0.691 | 0.636
coculture fibroblast: HHSteC | 0.89 | 0.847 | 0.798 | 0.7448 | –
coculture fibroblast: HMF | 0.883 | 0.792 | 0.739 | 0.694 | –
coculture fibroblast: HPFa | 0.952 | 0.891 | 0.842 | 0.7751 | –
coculture fibroblast: HUF | 0.861 | 0.724 | 0.747 | 0.622 | –
coculture fibroblast: Hs5 | 0.905 | 0.818 | 0.745 | 0.695 | –
coculture fibroblast: Hs27A | 0.903 | 0.8286 | 0.79 | 0.765 | –
coculture fibroblast: Hs343T | 0.886 | 0.787 | 0.764 | 0.853 | –
coculture fibroblast: WS1 | 0.774 | 0.715 | 0.641 | 0.599 | –

Values are relative to the signal before dosing, not to a vehicle control; the signal also falls without drug.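 Labels refer to human fibroblasts, largely primary: uterine (C12385, HUF), lung (H6013), bone (Hs27A), adrenal (HADF), skin (WS1), plus mammary HMF and breast cancer-associated Hs343T. Cancer lines are basal-like or mesenchymal-like triple-negative breast cancer. The paper counts as hits responses shifting over 3x the replicate standard deviation. The tissue of the other fibroblasts is not given here.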
